Screen size: about 6,900 compounds; fewer than 10 were called active. Calls follow the shape of the dose curve; as a rule, active = well fitted curve in the direction sought with a large enough effect; inconclusive = small, poorly fitted or top-dose-only effect, or another doubt; inactive = no such curve, though single readings can be large or run the other way. The list shows a part of the results.
Each compound was assayed against Metallo-beta-lactamase type 2 (Klebsiella pneumoniae) (UniProt C7C422) (assay: qHTS to identify inhibitors of the New Delhi Metallo-beta-lactamase (NDM): primary screen against the NCATS Gemini Collection). Conditions: NDM-1 enzyme, meropenem hydrolysis, absorbance 300 nm; at 38.4 µM (top of the series) unless noted.
Source text: Assay Submitter (PI): James Inglese Ph.D., Patricia Dranchak Ph.D., Mahesh Aitha Ph.D. Assay Development and Screening Technology Laboratory (ADST) National Center for Advancing Translational Sciences (NCATS), Rockville, MD National Institute of Health (NIH), Bethesda, Maryland The metallo-beta-lactamases (MBL) are a main antibiotic resistance mechanism evolved by bacteria. There is an urgent clinical need for MBL inhibitors to mitigate this growing threat. To support a machine-based learning study, qHTS has been used to experimentally test inhibitors identified by prediction tools.
PROTOCOL TABLE (as described by Inglese et al., 2007) SEQUENCE No. (e.g., 1, 2, 3, etc.); […] (e.g., enzyme, Incubation, Reagent, etc.); VALUE; DESCRIPTION 1; NDM-1; 4 uL of 3 nM enzyme [2 nM final] in 50 mM HEPES (pH 7.0), 1 uM […], 0.01% Tween20; Use BioRaptr to dispense into Aurora black, clear bottom low base 1536-well plates 2; Compounds; 23 nL; Use Pin Tool (Wako) to transfer DMSO control and library compounds in DMSO 3; Incubate; >30 min 4; Reagent; 2 uL of 150 uM meropenem [50 uM final] 5; Incubate; 30 min. 6; Detector; Absorbance at 300 nm (bandwidth = 5 nm, 25 flashes/well) on Tecan Infinity NOTES (numbers refer to sequence above) 1; Column 1 of each plate received assay buffer without enzyme and columns 2-48 received enzyme for a final assay concentration of 2 nM. 2; Control plate contained DMSO in columns 1, 2, 3, and 4. 3; Compound interaction with enzyme. 4; Meropenem substrate was prepared in the same assay buffer as step 1 for a final assay concentration of 50 uM and added to all wells across the assay plates. 5; Substrate interaction with enzyme, plateau phase of kinetics. 6; Default reader settings were applied for absorbance read at 300 nm, bandwidth = 5 nm, 25 flashes/well. References: Inglese J, Shamu CE, Guy RK. 2007. Reporting data from high-throughput screening of small-molecule libraries. Nat Chem Biol. doi:10.1038/nchembio0807-438 Yasgar A, Shinn P, Jadhav A, Auld D, Michael S, Zheng W, Austin CP, Inglese J, Simeonov A. 2008. Compound Management for Quantitative High-Throughput Screening. J Lab Autom 13:79 - 89. doi:10.1016/j.jala.2007.12.004
Also: % of control where 0% means no effect.

Sequences of proteins named here, by UniProt entry; tags and fusion partners are left off. A change or cut given only in a name is not applied to a line headed by its entry.
UniProt C7C422: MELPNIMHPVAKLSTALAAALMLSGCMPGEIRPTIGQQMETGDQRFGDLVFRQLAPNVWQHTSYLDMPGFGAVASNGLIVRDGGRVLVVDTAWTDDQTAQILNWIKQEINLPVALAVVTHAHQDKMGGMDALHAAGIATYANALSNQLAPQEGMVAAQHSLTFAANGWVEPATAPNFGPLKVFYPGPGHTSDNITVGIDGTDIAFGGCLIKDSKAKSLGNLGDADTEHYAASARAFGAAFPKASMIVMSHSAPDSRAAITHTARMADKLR

| Structure (SMILES) | activity % (negative = inhibition) |
| --- | --- |
| O=C1CC2CCN(Cc3coc(-c4ccccc4)n3)CC2CCN1 (centres undefined) | inactive: 1.59% |
| Cc1cnc(C2CCC2)n1CCC1CCN(C(=O)c2ccc3ccccc3n2)CC1 | inactive: -1.21% |
| COc1ccc(C(=O)N2CCOCCNC(=O)[C@H]3CCCC[C@H]32)c(OC)n1 | inactive: 2.89% |
| O=C(NC1CC1)C1c2ccccc2C(=O)N(C2CCCCC2)C12CCCCC2 (centres undefined) | inactive: 9.96% |
| CN(CC1CCN(CCc2ccc(Cl)cc2)CC1)C(=O)c1ccccc1C#N | inactive: 0.591% |
| O=C(c1ccc(-c2ccco2)cc1)N1CCOC(c2ccccc2)C1 (centres undefined) | inactive: 31.3% |
| CCCN1CCN(C(=O)C2(c3ccc(NC(=O)C4CC4)cc3)CCCCC2)CC1 | inactive: -0.352% |
| COc1ccc(CN2CCC(N3Cc4cccn4C3=O)CC2)cc1 | inactive: -0.46% |
| COC(=O)[C@H]1CN(C(=O)NC(C)C)CCN1C(=O)c1cccnc1 | inactive: 0.502% [at 57.5 µM] |
| CNC(=O)N1C[C@@H](Oc2ccccc2)C[C@H]1C(=O)NCCOC | inactive: 8.41% |
| CC(=O)N1CCC(N[C@@H]2C[C@H](Cn3cc(-c4cccnc4)nn3)[C@@H](O)[C@H]2O)CC1 | inactive: 22.8% |
| CN[C@@H](C)C(=O)N1CC[C@H](NC(=O)Cc2cccs2)C[C@H]1C(=O)N[C@@H](Cc1ccc(OC)cc1)C(N)=O | inactive: -0.685% |
| COCCCNc1ccnc(-c2nnc(C)n2-c2ccccc2)c1 | inactive: 8.1% [at 57.5 µM] |
| CN1C(=O)[C@H]2CN(Cc3cn[nH]c3-c3cccs3)C[C@H]2C1=O | inactive: 1.58% |
| Cc1cc(C)n(CCCN(C)C(=O)c2cn(Cc3ccc(F)cc3)nn2)n1 | inactive: -1.67% |
| Cc1ncccc1OC1(C(=O)O)CCN(C(=O)Cc2ccn(C)c2)CC1 | inactive: 7.68% |
| C[S+](=O)([O-])N1CC2(CCN(Cc3ccc(Cl)cc3)C2)Cc2ccccc21 (centres undefined) | inactive: -0.432% |
| COc1ccc(CCNC(=O)C2(C)CCOCC2)cc1 | inactive: -3.56% [at 57.5 µM] |
| CC(=O)N(C)CCc1noc(C2CN(Cc3c(F)cccc3Cl)C2)n1 | inactive: 0.117% |
| Cc1nn2c(c1-c1ccnn1C(C)C)N(C(=O)COc1ccccc1C(N)=O)CCC2 | inactive: 14.8% [at 57.5 µM] |
| Cc1cc(C(=O)N[C@@H]2CCC[C@@H](C(=O)NC3CC3)CC(=O)N(C)C2)nn1C | inactive: 55.1% [at 57.5 µM] |

| Structure (SMILES) | activity % (negative = inhibition) |
| --- | --- |
| O=C(NC1CCCCCC1)C1CCc2nnc(-c3ccccn3)n21 (centres undefined) | inactive: -3.71% [at 57.5 µM] |
| Cc1nn(-c2ccccc2)c2c1C(C1CC1)N(C1CCN(Cc3cccc(OC(F)(F)F)c3)CC1)C2=O (centres undefined) | inactive: 10.9% |
| CC1=NOC2(CCN(Cc3ccc(N(C)C)cc3)C2)C1 (centres undefined) | inactive: 1.08% [at 57.5 µM] |
| O=C(Nc1ccc(F)cc1)c1c[nH]c2cccnc12 | inactive: 12.9% [at 57.5 µM] |
| CC(C)(CC(=O)O)CC(=O)N1CCN2C(=O)N(CCc3cccs3)C(=O)[C@H]2C1 | inactive: 14.6% [at 57.5 µM] |
| Cc1ccccc1CNC[C@H]1Cn2c(-c3ccccc3)cnc2CO1 | inactive: 36% [at 57.5 µM] |
| COc1cc(C)c(-c2nc(CN3CCOC(CCN)C3)c(C)o2)cc1C (centres undefined) | inactive: -1.12% |
| CCCCC(=O)N(C)CC1CCOC1 (centres undefined) | inactive: 7.75% |
| CCc1noc(CN(C(=O)c2oc3ccc(C)cc3c2C)C(C)C)n1 | inactive: 2.78% |
| COc1ccc2c(c1)c(CN1C[C@@H](CO)[C@H](c3nc(C)no3)C1)cn2C | inactive: 23.1% |
| CC(C(=O)Nc1nccs1)N1CCN(c2nccnc2C#N)CC1 (centres undefined) | inactive: 0.485% |
| O=C(c1cccn1C1CC1)N1C[C@H](CO)C[C@H](CN2CCCC2)C1 | inactive: 0.546% |
| NC(=O)C1CCN(c2cc(-c3noc([C@@H]4CCCN4Cc4ccc(Cl)cc4)n3)ccn2)CC1 | inactive: -5.61% |
| CCC1(N2CCN(S(=O)(=O)c3cccs3)CC2)CCN(S(C)(=O)=O)C1 (centres undefined) | inactive: 0.936% |
| Cc1ccc(-c2ccnc(N(C)CC3CC(=O)N(C(C)(C)C)C3)n2)c(C)n1 (centres undefined) | inactive: 11.9% |
| COc1cc(OC)cc(C(=O)NCC2CCCN(Cc3cc4ccccc4o3)C2)c1 (centres undefined) | inactive: -2.54% |
| CSCC(=O)NCCC[C@H](NC(=O)[C@@H]1[C@@H](NC(=O)NC2CCCCC2)CCN1C(=O)CSC)C(N)=O | inactive: 4.33% |
| O=C(c1ccc(-c2noc(C3CC3)n2)cc1)N1CCC2(CCOCC2)CC1 | inactive: -3.04% |
| Cc1noc(C)c1[S+](=O)([O-])N1CCCC1C(=O)N1CCC(N2CCCC2=O)CC1 (centres undefined) | inactive: 21.1% |
| CC(c1ccon1)N(C)C(=O)c1csc2nc(-c3cccc(C(F)(F)F)c3)cn12 (centres undefined) | inactive: 0.813% |
| COC(=O)[C@@H]1Cc2ncn(Cc3ccc(Cl)cc3)c2CN1Cc1ccc(N(C)C)cc1 | inactive: 0.468% |

Grouped by structure, the compounds so far containing an NH in an aromatic ring.

| Structure (SMILES) | activity % (negative = inhibition) |
| --- | --- |
| CN1C(=O)[C@H]2CN(Cc3cn[nH]c3-c3cccs3)C[C@H]2C1=O | inactive: 1.58% |
| O=C(Nc1ccc(F)cc1)c1c[nH]c2cccnc12 | inactive: 12.9% [at 57.5 µM] |

Carrying on.

| Structure (SMILES) | activity % (negative = inhibition) |
| --- | --- |
| CC(=O)N1CCC(N[C@@H]2CO[C@H](CNS(C)(=O)=O)[C@H]2O)CC1 | inactive: 0.39% [at 57.5 µM] |
| Cc1nc(C2CC(O)C2)cc(N2CCC(OCc3cccnc3)CC2)n1 (centres undefined) | inactive: 0.384% |
| Cc1ccc(C(=O)NCc2nnc3ccc(-c4ccccc4)nn23)s1 | inactive: 4.71% |
| CN1C(=O)C(CC(=O)N2CC(O)C2)(Cc2ccccc2)c2ccccc21 (centres undefined) | inactive: 0.394% |
| CN(C)c1cc(N2CCCC(NC(=O)C3CCC3)C2)ncn1 (centres undefined) | inactive: 9.93% |
| COCCN1C(=O)c2cccn2CC1CNS(=O)(=O)Cc1ccccc1 (centres undefined) | inactive: 5.33% |
| CC(C)(C)CC(=O)N1CC[C@@H](CC(=O)O)[C@@H](CCN2CCN(c3ccccn3)CC2)C1 | inactive: 19% [at 57.5 µM] |
| Cc1ncc2c(c1CNC(=O)Cc1ccsc1)CCN(C(=O)Cc1ccc(F)c(F)c1)C2 | inactive: 14.5% |
| O=C(NC1CC1)c1nc2sccn2c1-c1ccc(C(F)(F)F)cc1 | inactive: 6.68% |
| Cc1ccc(-n2cccc2CC(=O)N2CCOCC2)cc1 | inactive: 12% |
| O=C([C@@H]1C[C@H](F)CN1C(=O)CCCc1ccccc1)N1CCCCC1 | inactive: -1.34% |
| C=CCN(C)C(=O)[C@@H](C)C1CC[C@@]2(C)Cc3sc(-c4cccnc4)nc3[C@@H](C)[C@@H]2[C@H]1O (some centres undefined) | inactive: 5.62% [at 57.5 µM] |
| CCCN(C)C(=O)CCc1ccnc(N2CCOCC2)c1 | inactive: -6.07% |
| CCC(C(=O)N1CCC2(CC1)C(=O)N(CC(=O)NCC(C)C)CN2c1ccccc1)c1ccccc1 (centres undefined) | inactive: -0.717% |
| Cc1cnc(C(=O)N2CCC3(CC2)CCC(O)(CN(C)C)CC3)cn1 | inactive: -3.61% |
| Cc1ccncc1C(=O)N1CC[C@@H]2CN(S(C)(=O)=O)[C@@H]2C1 | inactive: 107% |
| O=C(c1ccc2ccccc2n1)N1CC2CC(C1)[C@H]1CCCC(=O)N1C2 (some centres undefined) | inactive: 7.86% |
| Cc1ncccc1C(=O)N1C[C@H]2OC(=O)N(CCc3cccc(Cl)c3)[C@H]2C1 | inactive: 2.85% |
| COc1cccn(CC(=O)N2CCN(c3ccccc3C#N)CC2)c1=O | inactive: 6.61% |
| CCCS(=O)(=O)N1CCC2(CC1)c1[nH]c3ccccc3c1CCN2C | inactive: -0.435% |
| N#Cc1cccc(C(=O)N2CCCCC2CCn2cc(-c3ccccc3)nn2)c1 (centres undefined) | inactive: -0.239% |

3 structures out of the list, arranged by formula weight, low to high:

| Structure (SMILES) | activity % (negative = inhibition) |
| --- | --- |
| Cc1ncccc1OC1(C(=O)O)CCN(C(=O)Cc2ccn(C)c2)CC1 | inactive: 7.68% |
| CC(C)(CC(=O)O)CC(=O)N1CCN2C(=O)N(CCc3cccs3)C(=O)[C@H]2C1 | inactive: 14.6% [at 57.5 µM] |
| COc1cc(OC)cc(C(=O)NCC2CCCN(Cc3cc4ccccc4o3)C2)c1 (centres undefined) | inactive: -2.54% |

(cont.)

| Structure (SMILES) | activity % (negative = inhibition) |
| --- | --- |
| Cn1c(Cn2cccn2)nnc1C1CCCN(C(=O)c2ccoc2)C1 (centres undefined) | inactive: -1.41% |
| CN(CC1CCOCC1)C(=O)c1ccsc1 | inactive: 6.56% |
| O=C(NC1CCCN(c2ccc3nnc(-c4ccccc4)n3n2)C1)c1ccc(F)cc1 (centres undefined) | inactive: -6.46% |
| Cc1ccc(CNC(=O)N2CCCC(c3nn[nH]n3)C2)cc1 (centres undefined) | inactive: 3.32% |
| N#Cc1cccc(-c2cn3c(n2)N(C(=O)c2ccccc2F)CCC3)c1 | inactive: 6.36% |
| COc1coc(C(=O)NCCC2CN(c3cnn(C)c(=O)c3)CCO2)cc1=O (centres undefined) | inactive: 5.77% |
| O=C(NCCc1ccccn1)c1ccc(OC2CCNCC2)nc1 | inactive: 91.1% |
| Cc1ccc(CN2CC(N(CC3CC3)C3CCOCC3)C2)cc1 | inactive: 0.279% |
| COCCCNC(=O)c1ccc2nnc(Cc3ccc(Cl)cc3)n2c1 | inactive: 10.6% [at 57.5 µM] |
| CCCn1cc(NC(=O)C[C@H]2NC(=O)c3ccccc3NC2=O)c(C)n1 | inactive: 0.548% |
| O=C(NC1CCCC1)N1CCCC(C(=O)N2CCC(c3nc4ncccc4[nH]3)C2)C1 (centres undefined) | inactive: 7.24% |
| O=C([C@@H]1CNC[C@H](C(=O)N2CCN(c3nccs3)CC2)C1)N1CCCC1 | inactive: 3.77% |
| Cc1nnc2n1CCC(NS(=O)(=O)c1ccccc1F)CC2 (centres undefined) | inactive: -0.503% |
| O=C(c1csc(-c2cccs2)n1)N1CCC2(CCCO2)CC1 | inactive: 19.6% |
| Cc1cnc(CC2CCCN(S(=O)(=O)c3ccccc3)C2)n1CC1CC1 (centres undefined) | inactive: 9.97% |
| Cc1ccc(C)c(NC(=O)CN2C(=O)C(c3ccccc3)=NC23CCCC3)c1 | inactive: 1% |
| COCC1(c2nc(C3CCOCC3)nn2-c2ccccc2)CCC1 | inactive: 5.86% |
| Cc1ccc(C)c(NC(=O)N2C[C@H](c3nc(-c4cccnc4)no3)[C@@H](C)C2)c1 | inactive: -2.45% |
| CN(CC[C@H]1CN(C(=O)Cc2cccs2)CC[C@H]1CC(=O)O)c1ccccc1 | inactive: 14.6% [at 57.5 µM] |
| CN(C)c1ccc(C(=O)N2CCN3C(=O)N(CC(N)=O)C(=O)[C@@H]3C2)cc1 | inactive: 10.1% [at 57.5 µM] |
| C=CCNC(=O)C(NC(=O)c1cccs1)C1CCN(C(=O)c2ccc(F)cc2)CC1 (centres undefined) | inactive: 4.52% |
